Data taken from PubChem BioAssay AID192 (DTP/NCI, 2004).
The list shows only some results of the screen, not a fair sample: it gathers tests that were run many times, whatever their T/C, doses with no T/C, and many T/C values between a quarter and a half above the control. Further doses and runs are listed elsewhere. T/C gives the treated animals as a percentage of the vehicle group. Some doses have a count of surviving animals in place of a T/C: the source holds a T/C of zero for them, seemingly a mark for toxic or unscored doses. Some doses without a T/C left all or most animals alive at the check, yet need not have been tolerated: the source hardly ever lists a survival T/C far under the control, and the zero likely stands for such cases as well. Survivors were counted at the toxicity check, usually on the fifth day, unless a day is given; later deaths do not show. Schedules are NCI's codes, taken here to give the interval after Q, in days (D) or hours (H), and the number of doses after X. Some entries hold several experiments; the results are listed from low to high. Some molecules as drawn cover several salts, stereoisomers or complexes of the source; a dose is that of the sample tested. Some schedules carry Z or #; the key to these is not given. For survival time, this PubChem deposit counts one and a half times the control or more as active, and values a quarter to a half above the control carry no call in these data; other NCI protocols may use other cut-offs. Some T/C values carry the count of animals alive at the toxicity check (mostly the fifth day); without a count, all were alive then.

Tested on: BDF1 mice, B16 melanoma ip, median survival T/C
Assay: NCI In Vivo Anticancer Drug Screen. Data for tumor model B16 Melanoma (intraperitoneal) in B6D2F1 (BDF1) mice
Settings: T/C endpoint: median survival time, higher T/C = longer survival
Method in brief: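 Transplantable tumor model; survival or tumor size measured; reported as T/C, treated over vehicle control.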

[1] = dose: 100.0 mg/kg/injection, schedule: Q01DX009 (ip), vehicle: Klucel (hydroxypropylcellulose) (HPC)
[2] = dose: 200.0 mg/kg/injection, schedule: Q01DX009 (ip), vehicle: Klucel (hydroxypropylcellulose) (HPC)
[3] = dose: 400.0 mg/kg/injection, schedule: Q01DX009 (ip), vehicle: Klucel (hydroxypropylcellulose) (HPC)
[4] = dose: 200.0 mg/kg/injection, schedule: Q01DX009 (ip), vehicle: saline with Tween-80
[5] = dose: 400.0 mg/kg/injection, schedule: Q01DX009 (ip), vehicle: saline with Tween-80
[6] = dose: 100.0 mg/kg/injection, schedule: Q01DX009 (ip), vehicle: saline with Tween-80
[7] = dose: 25.0 mg/kg/injection, schedule: Q01DX009 (ip), vehicle: saline with Tween-80
[8] = dose: 50.0 mg/kg/injection, schedule: Q01DX009 (ip), vehicle: saline with Tween-80
[9] = dose: 200.0 mg/kg/injection, schedule: Q01DX009 (ip), vehicle: saline
[10] = dose: 25.0 mg/kg/injection, schedule: Q01DX009 (ip), vehicle: saline

N#Cc1ccc(NC(=O)Nc2nccs2)cc1
T/C (dose: 25.0 mg/kg/injection, schedule: Q01DX009 (ip), vehicle: distilled water + Tween-80): 126 % of control
T/C (dose: 50.0 mg/kg/injection, schedule: Q01DX009 (ip), vehicle: distilled water + Tween-80): 131 % of control
T/C (dose: 100.0 mg/kg/injection, schedule: Q01DX009 (ip), vehicle: distilled water + Tween-80): 132 % of control
survivor count (dose: 200.0 mg/kg/injection, schedule: Q01DX009 (ip), vehicle: distilled water + Tween-80): 2 of 10

CC(=O)Nc1ccc(NC(=O)c2ccc([As](O)O)cc2)cc1
T/C (dose: 50.0 mg/kg/injection, schedule: Q01DX009 (ip), vehicle: Klucel (hydroxypropylcellulose) (HPC)): 149 % of control
T/C [1]: 145 % of control
T/C [2]: 139 % of control

COc1ccc(C(=O)C(C)C(O)C(=O)O)c(O)c1C (stereo not given)
survivor count (dose: 200.0 mg/kg/injection, schedule: Q01DX009 (ip), vehicle: other): 10 of 10
survivor count (dose: 400.0 mg/kg/injection, schedule: Q01DX009 (ip), vehicle: other): 8 of 10

O=[N+]([O-])/C=C/c1ccc2ccccc2c1
survivor count [2]: 8 of 10
survivor count [3]: 0 of 10

CCOC(=O)c1ccc(OC(=O)Nc2ccccc2)cc1
survivor count [4]: 10 of 10
survivor count [5]: 10 of 10

CCCCOC(=O)c1ccc(NC(=O)Nc2ccccc2Cl)cc1
survivor count [6]: 9 of 10
survivor count [4]: 7 of 10

OC1COC(c2ccccc2)OC1C1OC(c2ccccc2)OC2COC(c3ccccc3)OC21 (stereo not given)
survivor count (dose: 12.5 mg/kg/injection, schedule: Q01DX009 (ip), vehicle: saline with Tween-80): 9 of 10
survivor count [7]: 9 of 10
survivor count [8]: 10 of 10

CN(C)CCCN1c2ccccc2S(=O)c2ccc(Cl)cc21 (stereo not given)
survivor count [9]: 5 of 10

CCOC(=O)c1ccc(NC(=O)Nc2nccs2)cc1
T/C [7]: 114, 121, 135, 146 % of control
T/C [8]: 121, 131, 140 [9 of 10 alive], 147 % of control
T/C [6]: 129, 131, 140, 166 % of control
T/C [4]: 126, 143, 162, 167 % of control
T/C [5]: 153 % of control [9 of 10 alive]
survivor count [5]: 8 of 10, 9 of 10, 10 of 10

CCCNC1=C(N2CC2)C(=O)C(NCCC)=C(N2CC2)C1=O
T/C (dose: 2.5 mg/kg/injection, schedule: Q01DX009 (ip), vehicle: saline): 125 % of control
T/C (dose: 5.0 mg/kg/injection, schedule: Q01DX009 (ip), vehicle: saline): 136 % of control
survivor count (dose: 10.0 mg/kg/injection, schedule: Q01DX009 (ip), vehicle: saline): 10 of 10

[Cl][Pt+2][Cl].[NH-]CC1(C[NH-])CCC1
T/C (dose: 0.6 mg/kg/injection, schedule: Q01DX009 (ip), vehicle: carboxymethylcellulose (CMC)): 145 % of control

C[CH2][Sn]([CH2]C)([CH2]C)[O]C(=O)CO
survivor count (dose: 6.25 mg/kg/injection, schedule: Q01DX009 (ip), vehicle: saline): 10 of 10
survivor count (dose: 12.5 mg/kg/injection, schedule: Q01DX009 (ip), vehicle: saline): 0 of 10
survivor count [10]: 0 of 10

CC(c1c[nH]c2ccccc12)N1CCCCC1 (stereo not given)
survivor count [1]: 3 of 10

CO[C@H](C(=O)[C@@H](O)[C@@H](C)O)[C@@H]1Cc2cc3cc(OC4CC(OC5CC(O)C(O)C(C)O5)C(O)C(C)O4)c(C)c(O)c3c(O)c2C(=O)[C@H]1OC1CC(OC2CC(OC3CC(C)(O)C(O)C(C)O3)C(O)C(C)O2)C(O)C(C)O1 (stereo not given in full)
survivor count (dose: 0.2 mg/kg/injection, schedule: Q01DX009 (ip), vehicle: water): 2 of 6
survivor count (dose: 0.25 mg/kg/injection, schedule: Q01DX009 (ip), vehicle: water): 2 of 6
survivor count (dose: 0.5 mg/kg/injection, schedule: Q01DX009 (ip), vehicle: water): 0 of 6
survivor count (dose: 0.75 mg/kg/injection, schedule: Q01DX009 (ip), vehicle: water): 0 of 6
survivor count (dose: 0.8 mg/kg/injection, schedule: Q01DX009 (ip), vehicle: water): 2 of 5
survivor count (dose: 1.0 mg/kg/injection, schedule: Q01DX009 (ip), vehicle: water): 8 of 10
survivor count (dose: 1.5 mg/kg/injection, schedule: Q01DX009 (ip), vehicle: saline): 2 of 6
survivor count (dose: 2.0 mg/kg/injection, schedule: Q01DX009 (ip), vehicle: clinical formulation): 3 of 10
survivor count (dose: 2.0 mg/kg/injection, schedule: Q01DX009 (ip), vehicle: saline): 7 of 10 and 9 of 10
survivor count (dose: 2.0 mg/kg/injection, schedule: Q01DX009 (ip), vehicle: water): 1 of 10
survivor count (dose: 3.0 mg/kg/injection, schedule: Q01DX009 (ip), vehicle: saline): 0 of 6
survivor count (dose: 66.6 micrograms/kg/injection, schedule: Q## X015 (ip), vehicle: water): 3 of 6
survivor count (dose: 133.3 micrograms/kg/injection, schedule: Q## X015 (ip), vehicle: water): 0 of 6
survivor count (dose: 200.0 micrograms/kg/injection, schedule: Q## X015 (ip), vehicle: water): 0 of 6
survivor count (dose: 250.0 micrograms/kg/injection, schedule: Q01DX009 (ip), vehicle: water): 10 of 10
survivor count (dose: 266.7 micrograms/kg/injection, schedule: Q## X015 (ip), vehicle: water): 0 of 6
survivor count (dose: 2000.0 micrograms/kg/injection, schedule: Q01DX009 (ip), vehicle: saline): 5 of 10

CCC(c1ccc(OC(=O)Cc2ccc(N(CCCl)CCCl)cc2)cc1)C(CC)c1ccc(OC(=O)Cc2ccc(N(CCCl)CCCl)cc2)cc1 (stereo not given)
survivor count (dose: 80.0 mg/kg/injection, schedule: Q01DX009 (ip), vehicle: saline with Tween-80): 10 of 10
survivor count [1]: 10 of 10
survivor count (dose: 120.0 mg/kg/injection, schedule: Q01DX009 (ip), vehicle: saline with Tween-80): 10 of 10
survivor count (dose: 128.0 mg/kg/injection, schedule: Q02DX009 (ip), vehicle: saline with Tween-80): 10 of 10
survivor count (dose: 180.0 mg/kg/injection, schedule: Q01DX009 (ip), vehicle: saline with Tween-80): 10 of 10
survivor count [2]: 10 of 10
survivor count (dose: 256.0 mg/kg/injection, schedule: Q02DX009 (ip), vehicle: saline with Tween-80): 10 of 10
survivor count (dose: 270.0 mg/kg/injection, schedule: Q01DX009 (ip), vehicle: saline with Tween-80): 10 of 10
survivor count [3]: 10 of 10
survivor count (dose: 405.0 mg/kg/injection, schedule: Q01DX009 (ip), vehicle: saline with Tween-80): 10 of 10
survivor count (dose: 512.0 mg/kg/injection, schedule: Q02DX009 (ip), vehicle: saline with Tween-80): 10 of 10

O=C(Nc1ccccc1F)Nc1ccccc1Cl
survivor count [1]: 10 of 10
survivor count [2]: 10 of 10
survivor count [3]: 9 of 10 and 10 of 10

CS(=O)(=O)OCCN(CCOS(C)(=O)=O)c1ccc(/C=N/Nc2ncnc3nc[nH]c23)cc1
survivor count [10]: 10 of 10
survivor count [8]: 10 of 10
survivor count (dose: 50.0 mg/kg/injection, schedule: Q01DX009 (ip), vehicle: saline): 10 of 10
T/C (dose: 50.0 mg/kg/injection, schedule: Q04DX003 (ip), vehicle: saline with Tween-80): 138 % of control
survivor count (dose: 100.0 mg/kg/injection, schedule: Q01DX009 (ip), vehicle: saline): 10 of 10
T/C (dose: 100.0 mg/kg/injection, schedule: Q04DX003 (ip), vehicle: saline with Tween-80, evaluated on day 45): 145 % of control
T/C (dose: 100.0 mg/kg/injection, schedule: Q04DX003 (ip), vehicle: saline with Tween-80, evaluated on day 60): 126 % of control
survivor count [4]: 10 of 10
survivor count [9]: 10 of 10
T/C (dose: 200.0 mg/kg/injection, schedule: Q04DX003 (ip), vehicle: saline with Tween-80, evaluated on day 45): 140 % of control
T/C (dose: 200.0 mg/kg/injection, schedule: Q04DX003 (ip), vehicle: saline with Tween-80, evaluated on day 60): 128 % of control
